One assay addresses T1, Fbxo7 T22M (human) (UniProt Q9Y3I1).
T1 sequence: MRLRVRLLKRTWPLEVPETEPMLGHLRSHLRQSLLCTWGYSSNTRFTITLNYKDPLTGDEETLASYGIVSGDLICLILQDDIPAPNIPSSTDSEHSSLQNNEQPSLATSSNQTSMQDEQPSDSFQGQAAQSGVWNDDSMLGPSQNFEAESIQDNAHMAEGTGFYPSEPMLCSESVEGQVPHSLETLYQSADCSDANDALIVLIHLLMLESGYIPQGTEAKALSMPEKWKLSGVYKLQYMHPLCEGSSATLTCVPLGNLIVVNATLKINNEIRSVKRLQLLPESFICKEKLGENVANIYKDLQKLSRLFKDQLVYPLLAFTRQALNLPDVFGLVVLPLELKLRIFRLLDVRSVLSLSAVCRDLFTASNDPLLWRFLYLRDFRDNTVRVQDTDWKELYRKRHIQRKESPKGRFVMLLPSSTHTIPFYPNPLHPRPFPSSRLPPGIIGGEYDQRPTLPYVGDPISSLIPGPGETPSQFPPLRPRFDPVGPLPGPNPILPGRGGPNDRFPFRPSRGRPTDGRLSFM
Briefly: co-IP.

A further assay concerns the target T2, Flag-Fbxo7 WT (human) (UniProt Q9Y3I1).
T2 sequence: T1 sequence with M22T
Briefly: co-IP.

Changes are numbered by the printed parent chain. These are yes or no findings as the source states them, for the method shown. In cells and extracts the contact can be indirect. Some binding calls cover weakened binding; strength is not graded here. Sequences can lack the tags named with a protein.

B1: MiD49-Myc (protein, UniProt Q96C03 1-454)
chain: MAEFSQKRGKRRSDEGLGSMVDFLLANARLVLGVGGAAVLGIATLAVKRFIDRATSPRDEDDTKADSWKELSLLKATPHLQPRPPPAALSQPVLPLAPSSSAPEGPAETDPEVTPQLSSPAPLCLTLQERLLAFERDRVTIPAAQVALAKQLAGDIALELQAYFRSKFPELPFGAFVPGGPLYDGLQAGAADHVRLLVPLVLEPGLWSLVPGVDTVARDPRCWAVRRTQLEFCPRGSSPWDRFLVGGYLSSRVLLELLRKALAASVNWPAIGSLLGCLIRPSMASEELLLEVQHERLELTVAVLVAVPGVDADDRLLLAWPLEGLAGNLWLQDLYPVEAARLRALDDHDAGTRRRLLLLLCAVCRGCSALGQLGRGHLTQVVLRLGEDNVDWTEEALGERFLQALELLIGSLEQASLPCHFNPSVNLFSSLREEEIDDIGYALYSGLQEPEGLL
B1: the binding result with Fbxo7 T22M (human) and with Flag-Fbxo7 WT (human) was “binds” in each case.

The record behind these values is paper doi:10.1101/2021.12.22.473884.
